The values that follow come from article PMC8880564, “Design, Synthesis, and Biological Evaluation of a Novel VEGFR-2 Inhibitor Based on a 1,2,5-Oxadiazole-2-Oxide Scaffold with MAPK Signaling Pathway Inhibition” (Pharmaceuticals, 2022).

The test system of the data set is NCI-59 human cancer cell lines. The data set can be described thus: NCI-60 one-dose SRB screening, full panel and subpanels. As to conditions: 10 µM; for growth percentage, Delta: Delta of the one-dose mean graph; for growth percentage, Range: Range of the one-dose mean graph. In kind it is cell-based. Here is the method:
The structures of the synthesized compounds 6a–h, 12a–c, 11, 13a–c, and 14a–c were submitted to the National Cancer Institute’s Developmental Therapeutics Program (NCI-DTP), and all of them were selected for preliminary in vitro anticancer activity screening against NCI-59 human cancer cell lines at a concentration of 10 µM, using the sulforhodamine B (SRB) assay to determine the growth percentage and cell viability.
The in vitro NCI-60 cell line screening assay was conducted at the National Cancer Institute (NCI), Bethesda, USA against 59 cancer cell lines representing 9 types of cancers, as reported earlier. Briefly, the human cancer cell lines were grown in RPMI 1640 medium containing 5% fetal bovine serum and 2 mM L-glutamine and inoculated into 96-well microtiter plates in 100 μL (5000 to 40,000 cells/well). Then, the plates were incubated at 37 °C, 5% CO2, 95% air, and 100% relative humidity for 24 h. After that, two plates of each cell line were fixed in situ with TCA, to represent cell population at time zero (Tz). The tested compounds were dissolved in DMSO at 400-fold and added so that the final concentration became 10 μM. The plates were then incubated for an additional 48 h followed by the addition of cold TCA to terminate the assay in case of adherent cells. Then, the cells were fixed in situ by cold 50% (w/v) TCA (50 μL; final concentration, 10% TCA) and incubated for 1 h at 4 °C. After discarding the supernatant, the plates were washed 5 times with tap water and air dried. Sulforhodamine B (SRB) solution (100 μL) at 0.4% (w/v) in 1% HOAc was added to each well, and plates were incubated for 10 min. at rt. Then, washing with 1% acetic acid was conducted 5 times to remove the unbound dye followed by air drying. After that, 10 mM trizma base was added to solubilize the bound stain, and the absorbance was read on an automated plate reader at a wavelength of 515 nm. On the other hand, the methodology for suspension cells was the same except that 50 μL of 80% TCA (final concentration, 16% TCA) was gently added to terminate the assay by fixing settled cells at the bottom of the wells. Percentage growth inhibition (GI%) was calculated as follows:
Growth percentage=Ti (test growth in the presence of compound at 10 µM )−Tz (time zero)/C (control growth)−Tz (time zero)×100 for Ti ≥ Tz;
Growth percentage=Ti (test growth in the presence of compound at 10 µM )−Tz (time zero)/Tz (time zero)×100 for Ti < Tz.
where values of 100, 40, 0, −40, and −100 mean no GI, 60% GI, no net G, 40% lethality, and all cells are dead, respectively.
Data are expressed as a one-dose mean graph of growth percentages including the mean, delta, and range.

Regarding `[O-][n+]1onc(-c2ccccc2)c1COc1ccc(Nc2ncnc3c2cnn3-c2ccccc2)cc1` [6a, 4-phenyl-3-((4-((1-phenyl-1H-pyrazolo[3,4-d]pyrimidin-4-yl)amino)phenoxy)methyl)-1,2,5-oxadiazole 2-oxide], the “growth percentage, Delta” value was found to be 45.85% and the “growth percentage, Range” value amounted to 75.94%.
As to `Cc1nc(Nc2ccc(OCc3c(-c4ccccc4)no[n+]3[O-])cc2)c2cnn(-c3ccccc3)c2n1` [6b, 3-((4-((6-methyl-1-phenyl-1H-pyrazolo[3,4-d]pyrimidin-4-yl)amino)phenoxy)methyl)-4-phenyl-1,2,5-oxadiazole 2-oxide], the “growth percentage, Delta” value worked out at 14.77% and the “growth percentage, Range” value is on record as 34.68%.
Turning to `Cc1nn(-c2ccccc2)c2ncnc(Nc3ccc(OCc4c(-c5ccccc5)no[n+]4[O-])cc3)c12` [6c, 3-((4-((3-methyl-1-phenyl-1H-pyrazolo[3,4-d]pyrimidin-4-yl)amino)phenoxy)methyl)-4-phenyl-1,2,5-oxadiazole 2-oxide], the “growth percentage, Delta” value was found to be 24.23% and the “growth percentage, Range” value is recorded as 46.84%.
On to `Cc1nc(Nc2ccc(OCc3c(-c4ccccc4)no[n+]3[O-])cc2)c2c(C)nn(-c3ccccc3)c2n1` [6d, 3-((4-((3,6-dimethyl-1-phenyl-1H-pyrazolo[3,4-d]pyrimidin-4-yl)amino)phenoxy)methyl)-4-phenyl-1,2,5-oxadiazole 2-oxide], for which the “growth percentage, Delta” value is given as 16.39% and the “growth percentage, Range” value turned out to be 37.16%.
As to `[O-][n+]1onc(-c2ccccc2)c1COc1ccc(Nc2ncnc3c2cnn3-c2ccc(Br)cc2)cc1` [6e, 3-((4-((1-(4-bromophenyl)-1H-pyrazolo[3,4-d]pyrimidin-4-yl)amino)phenoxy)methyl)-4-phenyl-1,2,5-oxadiazole 2-oxide], the “growth percentage, Delta” value was found to be 18.93% and the “growth percentage, Range” value is on record as 36.68%.
Take `Cc1nc(Nc2ccc(OCc3c(-c4ccccc4)no[n+]3[O-])cc2)c2cnn(-c3ccc(Br)cc3)c2n1` [6f, 3-((4-((1-(4-bromophenyl)-6-methyl-1H-pyrazolo[3,4-d]pyrimidin-4-yl)amino)phenoxy)methyl)-4-phenyl-1,2,5-oxadiazole 2-oxide]: the “growth percentage, Delta” value amounted to 17.85% and the “growth percentage, Range” value was 39.52%.
As for `Cc1nn(-c2ccc(Br)cc2)c2ncnc(Nc3ccc(OCc4c(-c5ccccc5)no[n+]4[O-])cc3)c12` [6g, 3-((4-((1-(4-bromophenyl)-3-methyl-1H-pyrazolo[3,4-d]pyrimidin-4-yl)amino)phenoxy)methyl)-4-phenyl-1,2,5-oxadiazole 2-oxide], the “growth percentage, Delta” value was determined as 18.12% and the “growth percentage, Range” value worked out at 50.71%.
For the compound `Cc1nc(Nc2ccc(OCc3c(-c4ccccc4)no[n+]3[O-])cc2)c2c(C)nn(-c3ccc(Br)cc3)c2n1` [6h, 3-((4-((1-(4-bromophenyl)-3,6-dimethyl-1H-pyrazolo[3,4-d]pyrimidin-4-yl)amino)phenoxy)methyl)-4-phenyl-1,2,5-oxadiazole 2-oxide], the “growth percentage, Delta” value is on record as 28.04% and the “growth percentage, Range” value is recorded as 68.15%.
The corresponding values for `Cc1nn(-c2ccccc2)c2nc(C(F)(F)F)nc(Nc3ccc(NCc4c(-c5ccccc5)no[n+]4[O-])cc3)c12` [12a, 3-(((4-((3-methyl-1-phenyl-6-(trifluoromethyl)-1H-pyrazolo[3,4-d]pyrimidin-4-yl)amino)phenyl)amino)methyl)-4-phenyl-1,2,5-oxadiazole 2-oxide] are 37% and 66.14%.
`[O-][n+]1onc(-c2ccccc2)c1CNc1ccc(Nc2nc(C(F)(F)F)nc3c2cnn3-c2ccc(Br)cc2)cc1` [12b, 3-(((4-((1-(4-bromophenyl)-6-(trifluoromethyl)-1H-pyrazolo[3,4-d]pyrimidin-4-yl)amino)phenyl)amino)methyl)-4-phenyl-1,2,5-oxadiazole 2-oxide]: the “growth percentage, Delta” value stood at 44.06% and the “growth percentage, Range” value came out at 79.69%.
For `Cc1nn(-c2ccc(Br)cc2)c2nc(C(F)(F)F)nc(Nc3ccc(NCc4c(-c5ccccc5)no[n+]4[O-])cc3)c12` [12c, 3-(((4-((1-(4-bromophenyl)-3-methyl-6-(trifluoromethyl)-1H-pyrazolo[3,4-d]pyrimidin-4-yl)amino)phenyl)amino)methyl)-4-phenyl-1,2,5-oxadiazole 2-oxide], the “growth percentage, Delta” value turned out to be 42.9% and the “growth percentage, Range” value was 84.8%.
Consider `O=c1[nH]c(CCl)nc2c1cnn2-c1ccccc1` [13a], for which the “growth percentage, Delta” value is recorded as 183.97% and the “growth percentage, Range” value is recorded as 244.17%.
On to `Cc1nn(-c2ccccc2)c2nc(CCl)[nH]c(=O)c12` [13b], for which the “growth percentage, Delta” value turned out to be 169.18% and the “growth percentage, Range” value amounted to 208.67%.
For `Cc1nn(-c2ccc(Br)cc2)c2nc(CCl)[nH]c(=O)c12` [13c], the “growth percentage, Delta” value worked out at 178.45% and the “growth percentage, Range” value turned out to be 209.18%.
For the compound `O=c1[nH]c(CNc2ccc(NCc3c(-c4ccccc4)no[n+]3[O-])cc2)nc2c1cnn2-c1ccccc1` [14a, 3-(((4-(((4-oxo-1-phenyl-4,5-dihydro-1H-pyrazolo[3,4-d]pyrimidin-6-yl)methyl)amino)phenyl)amino)methyl)-4-phenyl-1,2,5-oxadiazole 2-oxide], the “growth percentage, Delta” value is 38.87% and the “growth percentage, Range” value was 75.47%.
For `Cc1nn(-c2ccccc2)c2nc(CNc3ccc(NCc4c(-c5ccccc5)no[n+]4[O-])cc3)[nH]c(=O)c12` [14b, 3-(((4-(((3-methyl-4-oxo-1-phenyl-4,5-dihydro-1H-pyrazolo[3,4-d]pyrimidin-6-yl)methyl)amino)phenyl)amino)methyl)-4-phenyl-1,2,5-oxadiazole 2-oxide], the “growth percentage, Delta” value is 30.23% and the “growth percentage, Range” value is 75.25%.
As to `Cc1nn(-c2ccc(Br)cc2)c2nc(CNc3ccc(NCc4c(-c5ccccc5)no[n+]4[O-])cc3)[nH]c(=O)c12` [14c, 3-(((4-(((1-(4-bromophenyl)-3-methyl-4-oxo-4,5-dihydro-1H-pyrazolo[3,4-d]pyrimidin-6-yl)methyl)amino)phenyl)amino)methyl)-4-phenyl-1,2,5-oxadiazole 2-oxide], the “growth percentage, Delta” value was 19.99% and the “growth percentage, Range” value is reported as 49.14%.
Regarding `Nc1ccc(NCc2c(-c3ccccc3)no[n+]2[O-])cc1` [compound 11, 3-(((4-aminophenyl)amino)methyl)-4-phenyl-1,2,5-oxadiazole 2-oxide], the “growth percentage, Delta” value stood at 23.16% and the “growth percentage, Range” value is 72.47%.
